Values of other authors, collected in patent US12420242B1 (KING SAUD UNIVERSITY, priority 2025, dated 2025).
The name of at least one read-out is uncertain.

Settings: Table 1; cited from earlier work

## CCCCCCC [n-heptane]
  Solubility parameter, δ: 15.10 (MPa)^0.5
